Measured values published in publication PMC11035800.
Numbering of substitutions follows the chain as printed. Results are given in words; binding and its absence hold for the method and conditions named. In cells and extracts the contact can be indirect. Where a sequence is shown, tags or fusion partners need not be part of it.

Amino acid sequences for entries named in this document (tags omitted).
UniProt Q01196: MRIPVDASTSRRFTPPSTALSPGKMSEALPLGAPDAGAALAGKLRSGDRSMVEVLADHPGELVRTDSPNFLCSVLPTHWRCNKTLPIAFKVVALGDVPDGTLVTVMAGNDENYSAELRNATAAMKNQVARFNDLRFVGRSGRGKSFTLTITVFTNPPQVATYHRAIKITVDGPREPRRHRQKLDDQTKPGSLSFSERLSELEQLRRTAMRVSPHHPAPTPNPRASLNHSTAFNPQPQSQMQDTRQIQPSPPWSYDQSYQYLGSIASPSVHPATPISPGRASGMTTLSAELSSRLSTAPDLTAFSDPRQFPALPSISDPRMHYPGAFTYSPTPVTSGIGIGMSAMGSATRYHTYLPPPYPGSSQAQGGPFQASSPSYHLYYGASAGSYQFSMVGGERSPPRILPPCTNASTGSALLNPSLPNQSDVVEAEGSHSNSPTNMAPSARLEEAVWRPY

What was measured:
Experiment in all cases: co-IP; anti-MYC beads on extracts of HEL cells overexpressing MYC-tagged CARM1 (WT, Y334F, Y149F, Y149F/Y334F); blot with anti-RUNX1 mouse antibody
[1] = target: T1, MYC-tagged CARM1 Y149F overexpressed in HEL cells (UniProt Q86X55)
T1 sequence: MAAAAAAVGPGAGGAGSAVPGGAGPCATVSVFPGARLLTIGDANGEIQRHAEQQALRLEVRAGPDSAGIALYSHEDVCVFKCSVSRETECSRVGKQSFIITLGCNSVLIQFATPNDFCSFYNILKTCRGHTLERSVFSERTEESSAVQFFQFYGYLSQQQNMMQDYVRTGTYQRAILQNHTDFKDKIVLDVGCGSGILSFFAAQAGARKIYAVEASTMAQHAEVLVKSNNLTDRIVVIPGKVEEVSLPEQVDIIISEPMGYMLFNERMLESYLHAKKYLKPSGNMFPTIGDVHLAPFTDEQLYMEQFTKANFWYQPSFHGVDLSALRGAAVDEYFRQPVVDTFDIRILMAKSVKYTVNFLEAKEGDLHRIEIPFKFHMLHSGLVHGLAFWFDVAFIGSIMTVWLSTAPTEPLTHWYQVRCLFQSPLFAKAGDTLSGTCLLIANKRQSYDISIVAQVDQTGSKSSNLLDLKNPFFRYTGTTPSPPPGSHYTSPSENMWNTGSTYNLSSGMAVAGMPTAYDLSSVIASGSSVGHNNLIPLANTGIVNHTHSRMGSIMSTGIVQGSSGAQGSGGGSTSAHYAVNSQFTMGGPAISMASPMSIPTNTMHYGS

[2] = target: T2, MYC-tagged CARM1 Y149F/Y334F overexpressed in HEL cells (UniProt Q86X55)
T2 sequence: T1 sequence with Y334F

[3] = target: T3, MYC-tagged CARM1 Y334F overexpressed in HEL cells (UniProt Q86X55)
T3 sequence: T1 sequence with F149Y, Y334F

Measured: binding

RUNX1 transcription factor, endogenous in HEL cells (from UniProt Q01196 1-453)
no binding: all assays above
